Experimental data from publication PMC3464259.
Results are given in words; binding and its absence hold for the method and conditions named. In cells and extracts the contact can be indirect. Some results given as binding are weak or reduced against the parent protein; the word gives no strength.

Amino acid sequences for entries named in this document (tags omitted).
UniProt P10275: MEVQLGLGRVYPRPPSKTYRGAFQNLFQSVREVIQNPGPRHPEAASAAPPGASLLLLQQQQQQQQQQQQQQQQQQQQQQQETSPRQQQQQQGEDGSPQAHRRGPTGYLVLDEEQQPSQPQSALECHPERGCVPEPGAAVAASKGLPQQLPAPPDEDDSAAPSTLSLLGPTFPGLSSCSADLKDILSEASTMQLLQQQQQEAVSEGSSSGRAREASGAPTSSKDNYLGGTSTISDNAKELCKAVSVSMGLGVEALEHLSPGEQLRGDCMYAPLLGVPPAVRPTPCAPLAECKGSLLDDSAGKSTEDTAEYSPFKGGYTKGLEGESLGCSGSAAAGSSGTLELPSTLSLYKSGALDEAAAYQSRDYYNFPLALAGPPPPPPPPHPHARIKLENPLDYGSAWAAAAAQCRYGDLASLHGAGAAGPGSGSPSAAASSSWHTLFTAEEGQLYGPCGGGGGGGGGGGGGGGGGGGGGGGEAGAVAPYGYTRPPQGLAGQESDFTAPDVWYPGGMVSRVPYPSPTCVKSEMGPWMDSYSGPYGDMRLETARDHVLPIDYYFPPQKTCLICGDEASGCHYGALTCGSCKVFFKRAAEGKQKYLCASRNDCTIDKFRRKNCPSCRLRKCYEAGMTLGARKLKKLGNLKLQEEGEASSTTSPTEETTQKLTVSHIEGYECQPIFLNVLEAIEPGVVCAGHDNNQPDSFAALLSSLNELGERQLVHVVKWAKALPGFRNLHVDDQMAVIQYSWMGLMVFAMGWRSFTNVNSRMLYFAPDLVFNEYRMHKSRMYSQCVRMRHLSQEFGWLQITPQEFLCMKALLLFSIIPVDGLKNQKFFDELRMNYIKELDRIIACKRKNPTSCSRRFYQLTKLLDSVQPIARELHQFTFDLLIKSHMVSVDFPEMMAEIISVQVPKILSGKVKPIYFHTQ
UniProt P48436: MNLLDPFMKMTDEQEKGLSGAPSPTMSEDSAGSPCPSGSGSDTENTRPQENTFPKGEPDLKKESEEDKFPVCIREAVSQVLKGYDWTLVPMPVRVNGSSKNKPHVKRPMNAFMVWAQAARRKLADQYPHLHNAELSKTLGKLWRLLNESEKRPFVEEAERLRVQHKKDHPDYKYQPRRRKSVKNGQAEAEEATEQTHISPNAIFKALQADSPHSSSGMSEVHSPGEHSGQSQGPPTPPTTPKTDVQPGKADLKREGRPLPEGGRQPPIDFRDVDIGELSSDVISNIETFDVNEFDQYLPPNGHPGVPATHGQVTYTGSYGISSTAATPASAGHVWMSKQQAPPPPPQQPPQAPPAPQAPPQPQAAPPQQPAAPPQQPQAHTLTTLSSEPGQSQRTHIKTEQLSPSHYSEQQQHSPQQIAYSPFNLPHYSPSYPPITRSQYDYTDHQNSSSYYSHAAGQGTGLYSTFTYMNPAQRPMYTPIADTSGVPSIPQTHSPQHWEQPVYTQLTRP

Target: Androgen receptor (human (endogenous in LAPC4)) (UniProt P10275)
Assay: co-IP; LAPC4 lysate (Buffer A: 50 mM Tris-Cl pH 7.4, 150 mM NaCl, 5 mM EDTA, 0.5% Nonidet P-40); precipitated with anti-AR (AR441) or control antibody (anti-Lyn), protein A sepharose; blots for AR and SOX9

- binding: binds
Substance: SOX9 (from UniProt P48436 1-509)
